From the supplement of paper PMC10849652
Some of the results follow.

Amino acid sequences for entries named in this document (tags omitted). A change or cut given only in a name is not applied to a line headed by its entry.
UniProt Q13362, whole entry, looked up: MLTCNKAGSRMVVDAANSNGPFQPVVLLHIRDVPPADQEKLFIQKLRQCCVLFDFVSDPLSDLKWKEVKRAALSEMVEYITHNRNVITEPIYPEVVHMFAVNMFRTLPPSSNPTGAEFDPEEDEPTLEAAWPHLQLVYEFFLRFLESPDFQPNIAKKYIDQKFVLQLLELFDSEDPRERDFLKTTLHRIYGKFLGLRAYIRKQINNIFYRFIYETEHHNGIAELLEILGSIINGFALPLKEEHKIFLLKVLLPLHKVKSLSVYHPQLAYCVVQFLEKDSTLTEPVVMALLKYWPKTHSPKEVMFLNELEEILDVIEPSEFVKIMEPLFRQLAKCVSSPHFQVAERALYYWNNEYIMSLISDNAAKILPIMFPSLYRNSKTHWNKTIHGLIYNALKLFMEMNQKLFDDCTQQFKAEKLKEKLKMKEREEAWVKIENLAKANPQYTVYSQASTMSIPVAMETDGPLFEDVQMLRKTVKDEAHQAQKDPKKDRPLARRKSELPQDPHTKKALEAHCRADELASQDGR
UniProt O43741: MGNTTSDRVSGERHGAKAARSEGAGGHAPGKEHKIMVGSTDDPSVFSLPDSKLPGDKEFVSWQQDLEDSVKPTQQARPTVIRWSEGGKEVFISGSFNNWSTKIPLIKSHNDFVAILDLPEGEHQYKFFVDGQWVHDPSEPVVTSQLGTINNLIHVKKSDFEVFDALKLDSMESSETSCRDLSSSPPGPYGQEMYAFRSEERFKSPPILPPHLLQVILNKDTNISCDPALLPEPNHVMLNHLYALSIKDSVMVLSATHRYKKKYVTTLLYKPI
UniProt Q4J6C6, whole entry, looked up: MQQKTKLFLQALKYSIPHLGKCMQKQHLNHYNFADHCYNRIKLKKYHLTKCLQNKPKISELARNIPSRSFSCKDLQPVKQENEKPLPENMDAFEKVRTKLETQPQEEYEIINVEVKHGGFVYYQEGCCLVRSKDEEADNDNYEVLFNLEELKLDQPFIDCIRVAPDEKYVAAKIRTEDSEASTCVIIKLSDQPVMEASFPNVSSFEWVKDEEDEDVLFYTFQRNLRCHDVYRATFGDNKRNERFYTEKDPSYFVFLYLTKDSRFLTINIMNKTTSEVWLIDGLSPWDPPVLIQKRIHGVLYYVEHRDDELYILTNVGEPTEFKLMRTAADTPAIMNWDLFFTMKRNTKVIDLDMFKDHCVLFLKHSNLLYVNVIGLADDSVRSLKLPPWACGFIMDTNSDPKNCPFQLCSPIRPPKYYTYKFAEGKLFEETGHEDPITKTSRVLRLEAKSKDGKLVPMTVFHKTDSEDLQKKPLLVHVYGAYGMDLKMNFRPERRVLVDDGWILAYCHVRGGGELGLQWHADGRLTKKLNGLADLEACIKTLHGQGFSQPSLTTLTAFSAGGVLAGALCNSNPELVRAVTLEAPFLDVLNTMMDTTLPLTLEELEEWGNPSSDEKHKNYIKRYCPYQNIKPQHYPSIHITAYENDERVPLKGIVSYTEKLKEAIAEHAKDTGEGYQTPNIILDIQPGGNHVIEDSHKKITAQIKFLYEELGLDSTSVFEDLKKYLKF
UniProt Q99633: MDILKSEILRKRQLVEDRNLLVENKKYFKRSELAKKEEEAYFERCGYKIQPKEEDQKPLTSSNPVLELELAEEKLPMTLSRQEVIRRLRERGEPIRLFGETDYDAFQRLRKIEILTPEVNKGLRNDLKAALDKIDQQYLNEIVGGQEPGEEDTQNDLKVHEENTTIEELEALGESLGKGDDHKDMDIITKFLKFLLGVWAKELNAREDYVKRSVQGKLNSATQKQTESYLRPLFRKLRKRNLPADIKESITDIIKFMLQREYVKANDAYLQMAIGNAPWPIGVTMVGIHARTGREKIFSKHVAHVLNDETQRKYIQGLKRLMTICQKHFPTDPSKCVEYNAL
UniProt P53041: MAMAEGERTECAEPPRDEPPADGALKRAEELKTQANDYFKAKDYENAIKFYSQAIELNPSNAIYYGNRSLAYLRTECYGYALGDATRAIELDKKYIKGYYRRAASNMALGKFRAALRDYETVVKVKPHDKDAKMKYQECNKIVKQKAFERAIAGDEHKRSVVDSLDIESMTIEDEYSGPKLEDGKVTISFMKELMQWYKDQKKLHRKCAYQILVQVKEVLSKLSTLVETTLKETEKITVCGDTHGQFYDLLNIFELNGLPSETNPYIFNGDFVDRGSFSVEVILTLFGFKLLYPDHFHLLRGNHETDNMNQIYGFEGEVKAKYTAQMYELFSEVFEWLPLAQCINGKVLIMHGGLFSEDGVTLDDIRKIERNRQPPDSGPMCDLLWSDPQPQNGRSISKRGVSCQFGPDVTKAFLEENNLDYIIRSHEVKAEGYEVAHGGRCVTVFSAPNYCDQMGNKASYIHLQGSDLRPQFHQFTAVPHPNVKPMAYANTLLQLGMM
UniProt Q8TF05: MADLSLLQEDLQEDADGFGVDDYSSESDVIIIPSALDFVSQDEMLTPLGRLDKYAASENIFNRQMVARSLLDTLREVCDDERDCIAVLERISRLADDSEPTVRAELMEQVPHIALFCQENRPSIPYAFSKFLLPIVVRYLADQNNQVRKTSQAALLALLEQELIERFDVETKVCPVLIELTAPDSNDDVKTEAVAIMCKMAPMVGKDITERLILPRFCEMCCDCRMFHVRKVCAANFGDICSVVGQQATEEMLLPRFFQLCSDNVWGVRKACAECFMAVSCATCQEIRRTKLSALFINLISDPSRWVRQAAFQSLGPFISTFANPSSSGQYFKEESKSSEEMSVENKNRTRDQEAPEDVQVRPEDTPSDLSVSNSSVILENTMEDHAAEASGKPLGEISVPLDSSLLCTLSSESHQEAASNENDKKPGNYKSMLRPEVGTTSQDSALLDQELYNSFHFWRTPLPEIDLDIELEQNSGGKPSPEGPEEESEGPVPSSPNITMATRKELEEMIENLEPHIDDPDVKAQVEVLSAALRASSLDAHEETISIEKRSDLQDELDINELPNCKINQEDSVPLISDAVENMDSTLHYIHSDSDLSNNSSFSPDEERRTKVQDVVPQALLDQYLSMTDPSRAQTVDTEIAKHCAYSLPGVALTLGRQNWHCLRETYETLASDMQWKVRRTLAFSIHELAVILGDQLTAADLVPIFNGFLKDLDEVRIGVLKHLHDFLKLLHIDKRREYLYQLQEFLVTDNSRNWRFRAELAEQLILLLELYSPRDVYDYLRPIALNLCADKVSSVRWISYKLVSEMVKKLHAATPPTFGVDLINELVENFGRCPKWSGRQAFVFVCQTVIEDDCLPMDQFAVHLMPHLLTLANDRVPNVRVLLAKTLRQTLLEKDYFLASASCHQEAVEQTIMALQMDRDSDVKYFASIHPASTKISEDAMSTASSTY
UniProt Q13162: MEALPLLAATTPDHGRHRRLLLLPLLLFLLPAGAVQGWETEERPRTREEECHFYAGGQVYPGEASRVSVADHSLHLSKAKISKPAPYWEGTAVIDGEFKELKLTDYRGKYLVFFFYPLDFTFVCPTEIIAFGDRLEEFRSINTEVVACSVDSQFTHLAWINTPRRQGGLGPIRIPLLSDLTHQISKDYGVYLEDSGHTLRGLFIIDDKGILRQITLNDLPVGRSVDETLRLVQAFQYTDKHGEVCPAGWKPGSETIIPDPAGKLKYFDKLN
UniProt Q14738, whole entry, looked up: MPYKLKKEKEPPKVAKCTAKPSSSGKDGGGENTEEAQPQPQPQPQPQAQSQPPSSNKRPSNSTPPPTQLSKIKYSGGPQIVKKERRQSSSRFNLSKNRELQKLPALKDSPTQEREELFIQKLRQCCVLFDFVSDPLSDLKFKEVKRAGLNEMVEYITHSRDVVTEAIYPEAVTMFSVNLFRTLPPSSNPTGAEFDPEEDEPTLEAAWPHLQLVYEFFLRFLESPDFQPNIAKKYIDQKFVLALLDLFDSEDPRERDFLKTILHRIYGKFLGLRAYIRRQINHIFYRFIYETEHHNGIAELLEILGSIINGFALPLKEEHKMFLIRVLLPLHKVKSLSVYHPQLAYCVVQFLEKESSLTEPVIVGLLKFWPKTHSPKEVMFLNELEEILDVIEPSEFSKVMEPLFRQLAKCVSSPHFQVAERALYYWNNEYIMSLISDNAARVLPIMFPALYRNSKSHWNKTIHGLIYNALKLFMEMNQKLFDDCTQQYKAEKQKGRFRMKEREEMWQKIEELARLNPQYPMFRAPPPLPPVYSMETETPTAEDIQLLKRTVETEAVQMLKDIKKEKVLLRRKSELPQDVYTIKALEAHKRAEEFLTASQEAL
UniProt P62714, whole entry, looked up: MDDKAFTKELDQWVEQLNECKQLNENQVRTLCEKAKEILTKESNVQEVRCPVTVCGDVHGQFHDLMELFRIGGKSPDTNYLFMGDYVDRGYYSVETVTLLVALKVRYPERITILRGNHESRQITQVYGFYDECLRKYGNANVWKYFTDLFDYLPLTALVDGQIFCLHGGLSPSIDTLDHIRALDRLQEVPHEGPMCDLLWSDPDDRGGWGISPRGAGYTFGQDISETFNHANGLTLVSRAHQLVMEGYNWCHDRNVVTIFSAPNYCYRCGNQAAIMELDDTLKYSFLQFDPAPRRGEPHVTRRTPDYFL
UniProt O60927: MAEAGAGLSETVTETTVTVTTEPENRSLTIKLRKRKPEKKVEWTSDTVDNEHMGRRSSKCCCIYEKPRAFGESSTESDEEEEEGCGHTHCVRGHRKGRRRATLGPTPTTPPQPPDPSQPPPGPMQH
UniProt O14974: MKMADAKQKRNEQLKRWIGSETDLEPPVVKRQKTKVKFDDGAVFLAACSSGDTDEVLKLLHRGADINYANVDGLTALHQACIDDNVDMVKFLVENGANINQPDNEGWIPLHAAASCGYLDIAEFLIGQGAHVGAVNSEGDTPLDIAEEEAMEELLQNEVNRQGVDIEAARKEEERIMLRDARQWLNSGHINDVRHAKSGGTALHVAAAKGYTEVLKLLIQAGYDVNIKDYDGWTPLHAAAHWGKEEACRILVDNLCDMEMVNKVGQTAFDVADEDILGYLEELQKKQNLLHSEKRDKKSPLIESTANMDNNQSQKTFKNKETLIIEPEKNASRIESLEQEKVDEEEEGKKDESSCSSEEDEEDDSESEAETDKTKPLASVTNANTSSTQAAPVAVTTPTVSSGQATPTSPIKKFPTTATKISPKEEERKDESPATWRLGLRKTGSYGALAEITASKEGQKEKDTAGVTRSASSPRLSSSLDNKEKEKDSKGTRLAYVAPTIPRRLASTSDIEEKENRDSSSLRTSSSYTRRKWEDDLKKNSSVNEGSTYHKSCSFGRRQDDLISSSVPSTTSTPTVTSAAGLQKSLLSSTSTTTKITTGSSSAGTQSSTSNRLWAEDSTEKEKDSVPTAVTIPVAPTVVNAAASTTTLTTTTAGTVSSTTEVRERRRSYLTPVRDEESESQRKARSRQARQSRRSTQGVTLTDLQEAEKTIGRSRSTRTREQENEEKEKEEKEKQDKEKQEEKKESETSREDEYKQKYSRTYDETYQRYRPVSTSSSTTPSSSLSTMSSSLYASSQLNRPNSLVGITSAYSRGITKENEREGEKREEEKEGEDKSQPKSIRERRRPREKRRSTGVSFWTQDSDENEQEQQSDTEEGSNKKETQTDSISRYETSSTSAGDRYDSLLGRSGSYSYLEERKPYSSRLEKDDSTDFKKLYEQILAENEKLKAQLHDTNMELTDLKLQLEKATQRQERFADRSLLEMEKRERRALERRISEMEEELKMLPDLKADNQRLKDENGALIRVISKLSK
UniProt P62140, whole entry, looked up: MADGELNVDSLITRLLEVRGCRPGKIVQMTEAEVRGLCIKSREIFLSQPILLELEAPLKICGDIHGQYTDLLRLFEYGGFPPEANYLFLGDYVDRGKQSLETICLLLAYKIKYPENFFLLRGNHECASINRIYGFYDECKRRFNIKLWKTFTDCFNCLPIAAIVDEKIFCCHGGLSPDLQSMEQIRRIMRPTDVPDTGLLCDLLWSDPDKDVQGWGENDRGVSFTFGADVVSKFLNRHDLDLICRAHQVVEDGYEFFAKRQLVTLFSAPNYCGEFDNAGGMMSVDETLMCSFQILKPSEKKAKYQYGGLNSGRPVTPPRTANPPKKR
UniProt P50897: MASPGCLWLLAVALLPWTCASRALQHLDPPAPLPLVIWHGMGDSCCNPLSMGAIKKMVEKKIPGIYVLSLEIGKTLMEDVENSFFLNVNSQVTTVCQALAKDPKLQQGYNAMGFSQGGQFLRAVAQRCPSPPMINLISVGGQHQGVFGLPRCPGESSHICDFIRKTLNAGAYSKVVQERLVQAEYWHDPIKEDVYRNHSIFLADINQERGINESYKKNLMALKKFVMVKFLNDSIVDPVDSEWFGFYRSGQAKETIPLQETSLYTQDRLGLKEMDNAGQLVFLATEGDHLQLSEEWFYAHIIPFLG
UniProt Q8TAP8: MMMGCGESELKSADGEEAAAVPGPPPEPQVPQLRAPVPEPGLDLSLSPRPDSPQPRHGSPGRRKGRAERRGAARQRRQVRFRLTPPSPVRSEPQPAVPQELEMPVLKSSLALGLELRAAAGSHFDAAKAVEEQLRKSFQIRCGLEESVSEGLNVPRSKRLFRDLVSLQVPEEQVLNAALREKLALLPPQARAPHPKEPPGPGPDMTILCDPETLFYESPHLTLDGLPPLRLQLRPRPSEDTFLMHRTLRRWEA

Compound: Cc1sc2c(c1C)C(c1ccc(Cl)cc1)=N[C@@H](CC(=O)OC(C)(C)C)c1nnc(C)n1-2
Assay: log2 fold change, soluble protein after heating vs DMSO (PISA); higher = thermal stabilisation; K562 cells, 10 uM, 30 min; active = over 0.2 and 3.5 SD of the protein, either way, in both replicates (recomputed)
Procedure, shortened: (§1)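 Soluble protein was defined as the supernatant after 21,000xg for 90 min. It came from K562 cells at 2×10^6 cells/mL given 10 μM compound for 30 min, heated in aliquots for 3 min across 48°C-58°C, pooled, and extracted in PBS with 0.5% NP-40 at 4°C, and was quantified by TMTpro 16plex LC-MS/MS with equalised channel sums. Thermal stability against control samples, from duplicates, is reported as log2 fold change.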

Target	log2 fold change
PRKAG2 (UniProt Q9UGJ0)	inactive: 0.041
PPP2R5C isoform 5 (UniProt Q13362)	inactive: -0.067
PPME1 (UniProt Q9Y570)	inactive: -0.027
PRKAB2 (UniProt O43741)	inactive: -0.117
PREPL (UniProt Q4J6C6)	inactive: -0.012
PRPF19 (UniProt Q9UMS4)	inactive: 0.002
PRPF18 (UniProt Q99633)	inactive: 0.208
PPP1R14C (UniProt Q8TAE6)	inactive: -0.017
PPP5C (UniProt P53041)	inactive: -0.013
PPP4R1 (UniProt Q8TF05)	inactive: -0.021
PRAME (UniProt P78395)	inactive: 0.026
PRRC2B (UniProt Q5JSZ5)	inactive: -0.014
PRKCQ (UniProt Q04759)	inactive: 0.033
PRKACA (UniProt P17612)	inactive: -0.009
PRPF40A (UniProt O75400)	inactive: -0.022
PROCR (UniProt Q9UNN8)	inactive: -0.055
PRKDC (UniProt P78527)	inactive: -0.031
PRDX4 (UniProt Q13162)	inactive: 0.012
PRKCSH (UniProt P14314)	inactive: -0.029
PRKCSH (UniProt K7ELL7)	inactive: 0.007

Target	log2 fold change
PRDX2 (UniProt P32119)	inactive: 0.017
PRCP (UniProt P42785)	inactive: 0.018
PRPF38B (UniProt Q5VTL8)	inactive: 0.056
PPP2R5D (UniProt Q14738)	inactive: -0.01
PPP2CB (UniProt P62714)	inactive: 0.008
PPP1R11 (UniProt O60927)	inactive: 0.06
PROS1 (UniProt P07225)	inactive: 0.043
PRKCD (UniProt Q05655)	inactive: 0.004
PRIM2 (UniProt P49643)	inactive: 0.014
PPP1R12A (UniProt O14974)	inactive: 0.035
PPP1CB (UniProt P62140)	inactive: -0.029
PREP (UniProt P48147)	inactive: 0.008
PRMT9 (UniProt Q6P2P2)	inactive: -0.03
PPM1F (UniProt P49593)	inactive: 0.017
PRPF3 (UniProt O43395)	inactive: -0.017
PRPF31 (UniProt Q8WWY3)	inactive: -0.087
PPT1 (UniProt P50897)	inactive: -0.003
PPM1H (UniProt Q9ULR3)	inactive: -0.004
PPP1R35 (UniProt Q8TAP8)	inactive: 0.03

Compound: c1ccc([C@@H]2C[C@H]2NC2CCNCC2)cc1
Assay: as above
Procedure, shortened: as §1

Target	log2 fold change
PRKAG2 (UniProt Q9UGJ0)	inactive: -0.087
PPP2R5C isoform 5 (UniProt Q13362)	inactive: -0.029
PPME1 (UniProt Q9Y570)	inactive: -0.012
PRKAB2 (UniProt O43741)	inactive: -0.077
PREPL (UniProt Q4J6C6)	inactive: 0.003
PRPF19 (UniProt Q9UMS4)	inactive: 0.008
PRPF18 (UniProt Q99633)	inactive: 0.001
PPP1R14C (UniProt Q8TAE6)	inactive: 0.25
PPP5C (UniProt P53041)	inactive: -0.005
PPP4R1 (UniProt Q8TF05)	inactive: -0.014
PRAME (UniProt P78395)	inactive: -0.019
PRRC2B (UniProt Q5JSZ5)	inactive: 0.069
PRKCQ (UniProt Q04759)	inactive: 0
PRKACA (UniProt P17612)	inactive: 0.035
PRPF40A (UniProt O75400)	inactive: 0.037
PROCR (UniProt Q9UNN8)	inactive: 0.052
PRKDC (UniProt P78527)	inactive: -0.019
PRDX4 (UniProt Q13162)	inactive: 0.018
PRKCSH (UniProt P14314)	inactive: -0.024
PRKCSH (UniProt K7ELL7)	inactive: -0.043

Target	log2 fold change
PRDX2 (UniProt P32119)	inactive: -0.004
PRCP (UniProt P42785)	inactive: 0.062
PRPF38B (UniProt Q5VTL8)	inactive: 0.032
PPP2R5D (UniProt Q14738)	inactive: -0.029
PPP2CB (UniProt P62714)	inactive: 0.028
PPP1R11 (UniProt O60927)	inactive: 0.142
PROS1 (UniProt P07225)	inactive: 0.094
PRKCD (UniProt Q05655)	inactive: -0.021
PRIM2 (UniProt P49643)	inactive: -0.092
PPP1R12A (UniProt O14974)	inactive: -0.008
PPP1CB (UniProt P62140)	inactive: 0.013
PREP (UniProt P48147)	inactive: -0.068
PRMT9 (UniProt Q6P2P2)	inactive: 0.004
PPM1F (UniProt P49593)	inactive: -0.054
PRPF3 (UniProt O43395)	inactive: 0.115
PRPF31 (UniProt Q8WWY3)	inactive: 0.005
PPT1 (UniProt P50897)	inactive: -0.003
PPM1H (UniProt Q9ULR3)	inactive: 0.03
PPP1R35 (UniProt Q8TAP8)	active: 0.362
